According to patent publication US20040037837A1 (priority 2000, published 2004):
Some results were stated once for a whole list of compounds, not compound by compound.

System: THP-1 cells pulsed with peptide
Test: 51Cr release cytotoxicity assay of peptide specific CD8+ T cells against peptide pulsed THP-1 cells
Assay type: cell-based, human
Conditions: 50:1 E:T ratio; label = peptide pulsed on targets; STCL after 2 weeks of stimulation

Sequence: KLIANNTRV (listed as Mycobacterium tuberculosis) [P242-250]
- specific lysis of peptide pulsed THP-1 cells by P48-56 stimulated CD8^+ T cells: < 10%
